The target in this experiment is T1, FLAG-tagged CCDC115 (human) (UniProt Q96NT0).
T1 sequence: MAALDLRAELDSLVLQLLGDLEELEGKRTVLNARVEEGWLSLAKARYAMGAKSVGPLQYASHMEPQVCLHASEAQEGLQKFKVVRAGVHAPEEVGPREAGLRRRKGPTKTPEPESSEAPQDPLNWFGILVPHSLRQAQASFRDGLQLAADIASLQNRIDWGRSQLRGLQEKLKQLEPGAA
The experiment is described as follows: co-IP; HeLa cells lysed in 1% NP-40, TBS, diluted to 0.1% detergent; anti-FLAG M2 magnetic beads, 3 hr at 4°C; eluted with FLAG peptide; immunoblot for endogenous TMEM199; wildtype or TMEM199 deficient cells; unrelated FLAG tagged protein as control. A general note: A western blot detects proteins with antibodies after separation by electrophoresis.

These are yes or no findings as the source states them, for the method shown. Binding seen in cells or lysates may run through a third protein. Some entries that bind do so weakly or less than the wild type. Where a sequence is shown, tags or fusion partners need not be part of it.

B1: TMEM199 (protein, UniProt Q8N511 1-208)
chain: MASSLLAGERLVRALGPGGELEPERLPRKLRAELEAALGKKHKGGDSSSGPQRLVSFRLIRDLHQHLRERDSKLYLHELLEGSEIYLPEVVKPPRNPELVARLEKIKIQLANEEYKRITRNVTCQDTRHGGTLSDLGKQVRSLKALVITIFNFIVTVVAAFVCTYLGSQYIFTEMASRVLAALIVASVVGLAELYVMVRAMEGELGEL
For the molecule B1, the binding result is recorded as “binds”.

Source of the values: PMC5391204.
